Reference: publication PMC8980952
Read-outs that look alike come from different tables or passages of the source. Results are given in words; binding and its absence hold for the method and conditions named. In cells and extracts the contact can be indirect. Some binding calls cover weakened binding; strength is not graded here. For part of these data: Tags and fused reporters may be left off the sequences shown. Blank lines part the entries; values can stand above or below the molecule they belong to.

Amino acid sequences for entries named in this document (tags omitted).
UniProt P43138: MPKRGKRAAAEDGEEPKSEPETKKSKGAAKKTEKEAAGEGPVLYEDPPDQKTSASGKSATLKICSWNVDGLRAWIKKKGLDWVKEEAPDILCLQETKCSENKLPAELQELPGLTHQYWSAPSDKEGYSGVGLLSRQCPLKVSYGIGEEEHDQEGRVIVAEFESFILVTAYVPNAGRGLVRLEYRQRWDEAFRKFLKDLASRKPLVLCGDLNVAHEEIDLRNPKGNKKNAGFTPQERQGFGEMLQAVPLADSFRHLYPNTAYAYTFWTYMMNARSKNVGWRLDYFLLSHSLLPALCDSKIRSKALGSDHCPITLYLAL
UniProt P27695: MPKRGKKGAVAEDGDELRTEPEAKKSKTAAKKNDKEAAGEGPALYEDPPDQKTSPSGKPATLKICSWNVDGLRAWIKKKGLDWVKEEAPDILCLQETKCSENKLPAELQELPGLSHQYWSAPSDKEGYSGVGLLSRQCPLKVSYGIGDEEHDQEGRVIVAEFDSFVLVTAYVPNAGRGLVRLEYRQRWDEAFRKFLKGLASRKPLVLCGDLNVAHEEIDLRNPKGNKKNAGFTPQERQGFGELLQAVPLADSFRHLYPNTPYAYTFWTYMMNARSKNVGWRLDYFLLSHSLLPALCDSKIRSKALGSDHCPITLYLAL
UniProt P10361: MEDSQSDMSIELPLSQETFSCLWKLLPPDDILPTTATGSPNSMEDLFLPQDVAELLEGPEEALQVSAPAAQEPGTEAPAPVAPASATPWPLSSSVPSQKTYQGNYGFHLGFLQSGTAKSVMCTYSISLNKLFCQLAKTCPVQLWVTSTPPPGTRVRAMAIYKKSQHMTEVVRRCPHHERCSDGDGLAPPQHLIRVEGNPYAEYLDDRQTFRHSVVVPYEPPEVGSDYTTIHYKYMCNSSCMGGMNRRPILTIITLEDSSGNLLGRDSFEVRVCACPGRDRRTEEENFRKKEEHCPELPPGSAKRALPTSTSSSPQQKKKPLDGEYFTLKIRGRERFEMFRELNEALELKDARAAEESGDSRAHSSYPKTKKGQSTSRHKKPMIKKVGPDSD
UniProt P52631: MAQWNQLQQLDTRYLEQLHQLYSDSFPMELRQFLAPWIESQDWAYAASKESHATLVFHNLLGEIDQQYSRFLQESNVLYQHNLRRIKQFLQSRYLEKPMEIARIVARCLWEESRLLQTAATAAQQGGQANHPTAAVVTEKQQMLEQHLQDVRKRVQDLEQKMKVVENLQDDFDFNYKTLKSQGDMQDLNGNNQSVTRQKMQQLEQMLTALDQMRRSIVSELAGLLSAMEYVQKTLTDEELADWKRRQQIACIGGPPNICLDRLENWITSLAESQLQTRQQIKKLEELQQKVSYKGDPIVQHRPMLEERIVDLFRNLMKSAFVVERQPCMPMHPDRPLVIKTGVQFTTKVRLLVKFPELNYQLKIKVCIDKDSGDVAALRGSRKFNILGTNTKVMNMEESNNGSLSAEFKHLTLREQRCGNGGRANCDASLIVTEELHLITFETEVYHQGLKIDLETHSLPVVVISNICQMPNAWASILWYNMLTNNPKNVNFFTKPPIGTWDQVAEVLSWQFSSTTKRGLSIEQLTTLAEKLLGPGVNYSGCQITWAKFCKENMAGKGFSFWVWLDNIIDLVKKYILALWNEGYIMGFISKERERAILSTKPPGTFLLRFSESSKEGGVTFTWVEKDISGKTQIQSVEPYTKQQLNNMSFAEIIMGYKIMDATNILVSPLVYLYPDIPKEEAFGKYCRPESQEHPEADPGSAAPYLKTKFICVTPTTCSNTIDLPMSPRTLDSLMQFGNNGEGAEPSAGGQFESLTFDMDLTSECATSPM

Experiments:
[1] = target: T1, Myc‐tagged human CRP (pEF1α‐myc‐hCRP) (human) (UniProt P02741); assay: co-IP; A10 cells transfected with myc-tMOCK, tMOCK, myc-tCRP, tCRP or tRef-1 for 48 h; total lysates cross-linked and immunoprecipitated by goat anti-Ref-1 or rabbit anti-myc antibodies; IB with anti-CRP, anti-Myc, anti-Ref-1 and anti-p53 antibodies
T1 sequence: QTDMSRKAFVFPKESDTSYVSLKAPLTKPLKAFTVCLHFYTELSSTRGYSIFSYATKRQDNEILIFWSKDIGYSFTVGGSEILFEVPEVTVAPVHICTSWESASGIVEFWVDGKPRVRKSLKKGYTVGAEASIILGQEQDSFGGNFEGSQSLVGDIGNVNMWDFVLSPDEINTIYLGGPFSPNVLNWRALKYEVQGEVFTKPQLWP

[2] = target: Ref‐1 in Myc‐tagged CRP‐overexpressed A10 cells (rat (endogenous in A10)) (UniProt P43138); assay: as above
[3] = target: human AP‐endonuclease/Redox factor‐1 (APE/Ref‐1), overexpressed from pcDNA3.1 (human) (UniProt P27695); assay: co-IP; A10 cells transfected with tMOCK, tCRP or tRef-1 for 48 h; total lysates cross-linked and immunoprecipitated by goat anti-Ref-1 antibody; IB with mouse anti-CRP and anti-STAT3 antibodies
[4] = target: Ref‐1 in Myc‐tagged CRP‐overexpressed A10 cells (rat (endogenous in A10)) (UniProt P43138); assay: co-IP; A10 cells transfected with myc-tMOCK, tMOCK, myc-tCRP, tCRP or tRef-1 for 48 h; total lysates cross-linked and immunoprecipitated by goat anti-Ref-1 or rabbit anti-myc antibodies; IB with anti-CRP, anti-Myc, anti-Ref-1 and anti-p53 antibodies; remark: listed apart in the source
[5] = target: Ref‐1 (endogenous in human aortic VSMCs) (human (endogenous in hVSMCs)) (UniProt P27695); assay: co-IP; total cell extracts of 8 Gy IR-exposed hVSMCs immunoprecipitated by IgG or goat anti-Ref-1 antibodies; IB with mouse anti-CRP, anti-Ref-1 and anti-STAT3 antibodies

Molecule: p53 (endogenous in A10 rat VSMCs, induced by tCRP) (from UniProt P10361 1-391)
binding [1]: binds
binding [2]: binds

B1: human C‐reactive protein (CRP), overexpressed from pcDNA3.1 (protein, UniProt P02741-1 19-224)
chain: QTDMSRKAFVFPKESDTSYVSLKAPLTKPLKAFTVCLHFYTELSSTRGYSIFSYATKRQDNEILIFWSKDIGYSFTVGGSEILFEVPEVTVAPVHICTSWESASGIVEFWVDGKPRVRKSLKKGYTVGAEASIILGQEQDSFGGNFEGSQSLVGDIGNVNMWDFVLSPDEINTIYLGGPFSPNVLNWRALKYEVQGEVFTKPQLWP
binding [3]: binds

B3: IR‐induced CRP (endogenous in human aortic VSMCs) (protein, UniProt P02741 19-224)
chain: QTDMSRKAFVFPKESDTSYVSLKAPLTKPLKAFTVCLHFYTELSSTRGYSIFSYATKRQDNEILIFWSKDIGYSFTVGGSEILFEVPEVTVAPVHICTSWESASGIVEFWVDGKPRVRKSLKKGYTVGAEASIILGQEQDSFGGNFEGSQSLVGDIGNVNMWDFVLSPDEINTIYLGGPFSPNVLNWRALKYEVQGEVFTKPQLWP
binding [5]: binds

More lines, now with the values ahead:

binding [3]: binds
Molecule: STAT3 (endogenous in A10 rat VSMCs) (from UniProt P52631 1-770)

binding [4]: binds
B2: Myc‐tagged human CRP (pEF1α‐myc‐hCRP) (protein, UniProt P02741-1 19-224)
chain: QTDMSRKAFVFPKESDTSYVSLKAPLTKPLKAFTVCLHFYTELSSTRGYSIFSYATKRQDNEILIFWSKDIGYSFTVGGSEILFEVPEVTVAPVHICTSWESASGIVEFWVDGKPRVRKSLKKGYTVGAEASIILGQEQDSFGGNFEGSQSLVGDIGNVNMWDFVLSPDEINTIYLGGPFSPNVLNWRALKYEVQGEVFTKPQLWP
